Laboratory results reported in PubChem BioAssay AID504834 (National Center for Advancing Translational Sciences (NCATS), 2011).
In all, about 320,000 compounds went through this assay and about 22,000 (6.9%) were called active. Inconclusive results, whose numbers are uncertain, are shown with a selection of clear calls. Calls follow the shape of the dose curve; as a rule, active = well fitted inhibition curve with a large enough effect; inconclusive = small, poorly fitted or top-dose-only effect, or another doubt; inactive = no such curve, though single readings can be large or run the other way. Where the call is inconclusive, the potency comes from a doubtful curve fit.

assay: Primary qHTS for delayed death inhibitors of the malarial parasite plastid, 96 hour incubation; conditions: P. falciparum luciferase reporter growth; series mostly up to 28.7 µM
Summary of the method: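 Two-generation exposure (96 h) targets delayed-death phenotype. Reporter parasites carrying integrated firefly luciferase, in red cells at 2% hematocrit and 0.05% parasitemia final, kept at 37 C, 5% CO2; luminescence loss indicates inhibition.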
Potency is read from the fitted curve at half-maximal effect.

With `COc1ccc(C2OC34CCCCC3C(C#N)(C#N)C2(C#N)C(=N)O4)cc1` (centres undefined) as the compound, how does the Potency read?
Its Potency is “inactive”.

Which Potency does the source give for `CCCN1CCN(CCCNC(=O)c2cc3c(=O)n(C)c4ccccc4c3n2C)CC1` here?
Its Potency is “inactive”.

Which Potency does the source give for `O=C(O)C1=C[C@H](c2cccs2)C[C@H](OCc2ccc(CO)cc2)O1` here?
Its Potency is “inactive”.

With `O=C(c1ccc(F)cc1)C1CCN(C(=O)NC2CCCCC2)CC1` as the compound, how does the Potency read?
The Potency was inconclusive: 10.4 µM [inhibitor, partial curve, poor fit].

With `CC(C)[N+](C)(C)CC(O)COc1cccc2ccccc12` (centres undefined) as the compound, how does the Potency read?
Its Potency is “inactive”.

For `CCN(CC)CCC(c1ccc(N(C)C)cc1)c1c(OC)cc(OC)c2c(-c3ccccc3)cc(=O)oc12` (centres undefined), which Potency is on record?
Its Potency is active: 3.7 µM.

Which Potency does the source give for `CCCSCCCNC(=O)c1ccc(NC(=O)C2=CSCCO2)cc1` here?
The Potency was inconclusive: 18.5 µM [inhibitor, single point].

Which Potency does the source give for `COC(=O)C(O)(c1c(C)[nH]n(-c2ccccc2)c1=O)C(F)(F)F` (centres undefined) here?
The Potency was inconclusive: 0.828 µM [inhibitor, full curve].

With `Cc1cc(C)c(S(=O)(=O)N2CCCOC2CNC(=O)C(=O)NCCC2=CCCCC2)c(C)c1` (centres undefined) as the compound, how does the Potency read?
The Potency was inconclusive: 18.5 µM [inhibitor, single point].

For `O=C(N/N=C/c1cc(Cl)cc([N+](=O)[O-])c1O)C(O)(c1ccccc1)c1ccccc1`, which Potency is on record?
Its Potency is inconclusive: 1.04 µM [inhibitor, partial curve, poor fit].

Which Potency does the source give for `O=c1c2ccccc2nnn1CSc1nc2sc3c(c2c(=O)n1CC1CCCO1)CCC3` (centres undefined) here?
Its Potency is inconclusive: 13.1 µM [inhibitor, single point].

With `Clc1cccc(-c2ccc3ncnc(NCc4cccs4)c3c2)c1` as the compound, how does the Potency read?
Its Potency is active: 3.29 µM.

For `COc1ccccc1C1=NC(c2ccc(F)cc2)N=C1C` (centres undefined), which Potency is on record?
Its Potency is “inactive”.

For `COc1ccc(CCNC(=O)C2CCCN(c3nc(C)cc(C)n3)C2)cc1` (centres undefined), which Potency is on record?
The Potency was inconclusive: 18.5 µM [inhibitor, single point].

Which Potency does the source give for `Cc1cc(=O)[nH]c(SCC(=O)NCCC2=CCCCC2)n1` here?
The Potency was “inactive”.

With `S=C(NCCc1ccncc1)Nc1ccccc1` as the compound, how does the Potency read?
The Potency was inconclusive: 1.04 µM [inhibitor, partial curve, poor fit].

With `Cc1ccc(C2CC(c3cccs3)=NN2C(=O)CCl)cc1` (centres undefined) as the compound, how does the Potency read?
The Potency was active: 1.85 µM.

Which Potency does the source give for `CCOc1ccc(C(=O)NC(=S)Nc2ccc(N3CCCCC3)cc2)cc1[N+](=O)[O-]` here?
Its Potency is inconclusive: 0.0185 µM [inhibitor, full curve, poor fit].

With `CCN(CC)C(=O)Cn1cnc2sc(C(=O)N3CCN(c4ccc(F)cc4)CC3)c(C)c2c1=O` as the compound, how does the Potency read?
Its Potency is “inactive”.

With `O=C(Nc1nc2ccc(S(=O)(=O)N3CCOCC3)cc2s1)c1cccs1` as the compound, how does the Potency read?
The Potency was inconclusive: 18.5 µM [inhibitor, single point].

With `CC(NC(=O)Cn1cc(Br)c([N+](=O)[O-])n1)c1ccccc1` (centres undefined) as the compound, how does the Potency read?
Its Potency is inconclusive: 10.4 µM [inhibitor, single point].

Which Potency does the source give for `O=C(/C=C/c1ccc(Cl)cc1)N1CCN(c2c(Cl)cccc2[N+](=O)[O-])CC1` here?
Its Potency is inconclusive: 11.7 µM [inhibitor, single point].

For `Cn1c(=O)c2c(nc(N/N=C/c3cccnc3)n2Cc2ccc(F)cc2)n(C)c1=O`, which Potency is on record?
Its Potency is “inactive”.

Which Potency does the source give for `Cc1cccc(NC(=O)c2ccc(S(=O)(=O)N3CCOCC3)cc2)c1C` here?
The Potency was inconclusive: 10.4 µM [inhibitor, partial curve, poor fit].

With `Fc1ccc(-n2nnnc2-c2cnc(-c3cccs3)nc2C(F)(F)F)cc1` as the compound, how does the Potency read?
Its Potency is active: 5.22 µM.

For `C/C(O)=C(/C=NCC(=O)O)C(=O)Nc1nccs1`, which Potency is on record?
Its Potency is “inactive”.

For `O=C(O)COc1ccccc1/C=N/NC(=O)c1ccc(F)cc1`, which Potency is on record?
Its Potency is “inactive”.

Which Potency does the source give for `CC(C)c1ccc(NC(=O)NN2CCOCC2)cc1` here?
Its Potency is “inactive”.

For `Nn1nnc2ccccc21`, which Potency is on record?
The Potency was “inactive”.

With `CC(C)c1ccc(C2C3CSCC=C3C(C#N)=C(N)C2(C#N)C#N)cc1` (centres undefined) as the compound, how does the Potency read?
Its Potency is inconclusive: 7.38 µM [inhibitor, partial curve, poor fit].

With `CC1C=Cc2ccccc2N1C(=O)c1ccccc1` (centres undefined) as the compound, how does the Potency read?
The Potency was inconclusive: 11.7 µM [inhibitor, single point].

For `Clc1ccc(CONc2ncnc3nonc23)c(Cl)c1`, which Potency is on record?
Its Potency is “inactive”.

For `CCCc1nc(SCC(=O)c2ccc(OC)cc2)c2c(=O)n(C)c(=O)n(C)c2n1`, which Potency is on record?
The Potency was “inactive”.

For `CCCOc1ccccc1NC(=O)CC1Nc2ccccc2NC1=O` (centres undefined), which Potency is on record?
Its Potency is “inactive”.

For `O=c1[nH]cnc2c1c(-c1ccccc1)cn2-c1ccc(Br)cc1`, which Potency is on record?
Its Potency is inconclusive: 9.28 µM [inhibitor, partial curve, poor fit].

Which Potency does the source give for `COc1cc2[nH]c(C(=O)Nc3ccc(F)cc3)cc2c(OC)c1OC` here?
Its Potency is inconclusive: 14.7 µM [inhibitor, partial curve, poor fit].

Which Potency does the source give for `CC(C)(C)CN1CCC(Oc2cccc(C(=O)N3CCNC(=O)C3(C)C)c2)CC1` here?
The Potency was active: 11.7 µM.

For `O=C(Nc1ccccc1Cl)Nc1ccccc1Cl`, which Potency is on record?
The Potency was “inactive”.

Which Potency does the source give for `CCOc1ccc(NC(=O)N(CCC(C)C)C(C)c2ccco2)cc1` (centres undefined) here?
Its Potency is inconclusive: 0.37 µM [inhibitor, partial curve, poor fit].

For `CCOc1ccccc1NC(=O)NC1CCN(CC(=O)Nc2ccc3c(c2)OCCO3)CC1`, which Potency is on record?
The Potency was inconclusive: 18.5 µM [inhibitor, partial curve, poor fit].

With `COC(=O)c1sccc1NC(=S)N1CCN(c2cc(C)ccc2C)CC1` as the compound, how does the Potency read?
Its Potency is “inactive”.

Which Potency does the source give for `CC(C)C(NC(=O)c1ccc(C(C)(C)C)cc1)C(=O)N1CCCC1` (centres undefined) here?
Its Potency is inconclusive: 11.7 µM [inhibitor, single point].

With `N#Cc1c2ccc([N+](=O)[O-])cc2[n+]([O-])n1-c1ccccc1` as the compound, how does the Potency read?
The Potency was active: 10.4 µM.

With `CCNC(=S)NN=C1c2ccccc2-c2ccccc21` as the compound, how does the Potency read?
The Potency was active: 4.65 µM.

Which Potency does the source give for `COc1ccc(NC(=O)CSCc2ccc(C#N)cc2)c(OC)c1` here?
Its Potency is inconclusive: 2.33 µM [inhibitor, single point].

For `CCNC(=O)/C(C#N)=C/c1c(N2CCCCCC2)nc2c(C)cccn2c1=O`, which Potency is on record?
Its Potency is active: 13.1 µM.

Which Potency does the source give for `CC(CCc1ccccc1)NS(=O)(=O)c1ccccc1` (centres undefined) here?
Its Potency is “inactive”.

For `CCC(=O)N1CCCc2cc(S(=O)(=O)N3CCC(N4CCCCC4)CC3)ccc21`, which Potency is on record?
Its Potency is inconclusive: 18.5 µM [inhibitor, single point].

Which Potency does the source give for `CCCCNC(=O)Cn1c2c(c(-c3ccccc3Cl)cc1=O)CCC2` here?
The Potency was inconclusive: 14.7 µM [inhibitor, partial curve, poor fit].

For `O=S(=O)(Cc1cccc(F)c1)c1c[nH]c2ccccc12`, which Potency is on record?
The Potency was inconclusive: 10.4 µM [inhibitor, single point].

With `CCc1ccc(NC(=O)c2ccc(NC(=O)C3CCCO3)cc2)cc1` (centres undefined) as the compound, how does the Potency read?
The Potency was inconclusive: 2.33 µM [inhibitor, partial curve, poor fit].

With `COc1ccc(-c2nc(CS(=O)(=O)CC(=O)NCCc3cc(OC)ccc3OC)c(C)o2)cc1` as the compound, how does the Potency read?
The Potency was inconclusive: 1.31 µM [inhibitor, single point].

Which Potency does the source give for `CCOc1ccc(CNC(=O)Cn2ccc3cc(S(=O)(=O)N4CCCCCC4)ccc32)cc1` here?
Its Potency is inconclusive: 14.7 µM [inhibitor, partial curve, poor fit].

With `CC1=NN(c2ccccc2)C(=O)/C1=C\c1cc(C)n(C)c1C` as the compound, how does the Potency read?
The Potency was active: 9.28 µM.

Which Potency does the source give for `Cc1cc(N2CCN(C)CC2)nc2ccc(NC(=S)N3CCN(c4ccccn4)CC3)cc12` here?
The Potency was active: 9.28 µM.

Which Potency does the source give for `CCN(CCNC(=O)C1CCN(S(C)(=O)=O)CC1)c1ccccc1` here?
Its Potency is active: 4.65 µM.

Which Potency does the source give for `N#CCCn1cc(C(=O)O)c(-c2cccs2)n1` here?
Its Potency is “inactive”.

For `Cc1cccc(NC(=O)COc2coc(CN3CCN(c4ccccc4)CC3)cc2=O)c1`, which Potency is on record?
Its Potency is inconclusive: 11.7 µM [inhibitor, partial curve].

For `CC(=O)c1cc(NC(=O)c2ccccc2)c(=O)oc1C`, which Potency is on record?
The Potency was “inactive”.

Which Potency does the source give for `CC(C)c1nc2oc3c(NCC4CCCO4)ncnc3c2c2c1CCC2` (centres undefined) here?
Its Potency is active: 2.94 µM.

For `COc1ccc(-c2c(-c3ccc(O)cc3O)n[nH]c2C)cc1OC`, which Potency is on record?
The Potency was inconclusive: 9.28 µM [inhibitor, single point].

For `CCN(CC(=O)Nc1ccc(S(=O)(=O)N2CCCC2)cc1)CC(=O)Nc1cccc(OC)c1`, which Potency is on record?
The Potency was “inactive”.

Which Potency does the source give for `CCOc1ccc(-c2cc(C(=O)NCCCN3CCN(CC)CC3)c3ccccc3n2)cc1` here?
The Potency was inconclusive: 0.147 µM [inhibitor, full curve, poor fit].

For `COC(=O)CSc1nnc(-c2c[nH]c3ccccc23)o1`, which Potency is on record?
Its Potency is inconclusive: 10.4 µM [inhibitor, single point].

Which Potency does the source give for `CC(=O)c1c(C)[nH]c(C(=O)CSc2nnc(-c3ccco3)o2)c1C` here?
The Potency was inconclusive: 10.4 µM [inhibitor, single point].

With `O=C(CCCl)N1CCN(c2nc(-c3ccccc3)cs2)CC1` as the compound, how does the Potency read?
The Potency was inconclusive: 18.5 µM [inhibitor, single point].

With `COc1ccc(C2=NOC(C(=O)NC3CCCCC3)C2)cc1OC` (centres undefined) as the compound, how does the Potency read?
The Potency was “inactive”.

For `CC(C)(c1cc(Br)c(O)c(Br)c1)c1cc(Br)c(O)c(Br)c1`, which Potency is on record?
Its Potency is inconclusive: 2.62 µM [inhibitor, partial curve, poor fit].

With `O=C(OCn1ncc(Cl)c(Cl)c1=O)c1ccc(C(F)(F)F)cc1` as the compound, how does the Potency read?
The Potency was “inactive”.

Which Potency does the source give for `CCOC(=O)c1ccc(-c2nnc(-c3ccc(Cl)cc3Cl)o2)cc1` here?
The Potency was inconclusive: 0.0657 µM [inhibitor, full curve, poor fit].

With `C/C(=N\NC(=S)NCc1ccccc1)c1ccco1` as the compound, how does the Potency read?
Its Potency is inconclusive: 18.5 µM [inhibitor, single point].

For `O=C(NCc1ccncc1)C(=O)Nc1nccs1`, which Potency is on record?
Its Potency is “inactive”.

Which Potency does the source give for `CCc1ccc([C@@H]2C[C@H]3CN(Cc4ccccc4OC)C(=O)[C@]34CCCN24)cc1` here?
The Potency was inconclusive: 9.28 µM [inhibitor, single point].

With `Cc1occc1-c1nnc(SCC(=O)N2CCCC(C)C2)o1` (centres undefined) as the compound, how does the Potency read?
Its Potency is inconclusive: 14.7 µM [inhibitor, partial curve].
